Oligonucleotides screened, 5′ to 3′:
SAM-II: SAM-II riboswitch RNA pseudoknot, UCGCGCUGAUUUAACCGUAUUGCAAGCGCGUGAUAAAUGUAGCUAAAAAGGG. About 200 hits among about 21,000 compounds.
PreQ1: PreQ1 riboswitch RNA pseudoknot, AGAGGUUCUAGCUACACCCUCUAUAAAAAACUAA. From B. subtilis. About 170 hits among about 24,000 compounds.
TPP: TPP riboswitch RNA three-way junction, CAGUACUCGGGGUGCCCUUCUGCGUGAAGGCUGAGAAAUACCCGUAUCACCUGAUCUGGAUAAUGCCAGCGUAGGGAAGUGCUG. About 160 hits among about 24,000 compounds.

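The test is a small-molecule microarray: each compound is printed twice on a reactive slide, and binding shows as fluorescence of the labelled oligonucleotide after washing. The data file lists only calls. An earlier report of the laboratory on the PreQ1, TPP and SAM-II riboswitches (doi:10.1038/s41467-019-09493-3) used 1 µM RNA for 2 h and required a mean Z-score above 3 (spot signal-to-noise against the whole library), a score well above that on a control array, and duplicate spots agreeing (coefficient of variation under 100); it then also set aside compounds that hit other targets, which this list keeps. The cut-offs behind this list may differ. The calls come from the array alone, and fixing a compound to the slide can hide its binding.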
Key: yes = hit, no = tested without a hit.
Compounds were drawn at random from those tested, without regard to their results.
A target missing from an entry has no call listed here.
A dash means that no call is listed here.

| structure | SAM-II | PreQ1 | TPP |
|---|---|---|---|
| `CC(O)CNC(=O)c1nn(-c2ccc(Cl)cc2)nc1CO` (configuration not stated) | - | no | no |
| `Cc1nc(SCCO)n[nH]1` | no | no | no |
| `CCCc1cc(Nc2cccc(C(=O)N3CCOCC3)c2)n2nc(-c3cccnc3)nc2n1` | - | no | no |
| `CCc1csc(CNC2CCOC3(CCOCC3)C2)n1` (configuration not stated) | no | no | no |
| `Nc1cnc(-c2cc3ccccc3s2)cn1` | no | no | no |
| `COc1ccc(C2C(C#N)=C(N)Oc3[nH]nc(C(F)(F)F)c32)cc1OC` (configuration not stated) | no | no | no |
| `CC(O)Cc1nsc(NC(=O)c2ccc(Cl)cc2)n1` (configuration not stated) | no | no | no |
| `CCCCNc1cc(CCC)nc2c3c(C)cc(C)nc3nn12` | - | no | no |
| `CCc1oc(C(=O)NCC(O)Cc2ccccc2)cc1CN1CCCC1` (configuration not stated) | no | no | no |
| `Cc1ccc(Nc2cc(C)nc3ncnn23)c(C)c1` | no | no | no |
| `O=C(NCC1(O)CCCNC1)Nc1ccc(-c2nc3ccccc3[nH]2)cc1` (configuration not stated) | no | no | no |
| `Cc1cc(Nc2cccc(Cl)c2C)c2ccccc2n1` | no | no | no |
| `Cc1nc2c(c(=O)[nH]1)CCN(C(=O)CCn1c(CO)nc3ccccc31)C2` | no | no | no |
| `CCOc1ccccc1Nc1c(-c2cc(C)c(C)cc2C)c(=O)c1=O` | - | no | no |
| `Cc1nccn1Cc1ccccc1-n1ccnc1-c1cc2n(n1)CCNC2` | no | no | no |
| `CC(C)(C)NC(=S)NC(C)(C)C` | no | no | no |
| `N#CC1=C(N)OC2=C(C(=O)CCC2)C1c1cccc(I)c1` (configuration not stated) | no | no | no |
| `C/C=C(/C)C(=O)O[C@H]1CCN2CC=C(COC(=O)[C@@](O)([C@H](C)OC)C(C)(C)O)[C@H]12` | no | no | no |
| `CCOc1ccccc1Nc1cc(C)nc2ncnn12` | no | no | no |
| `Cc1cc(Nc2ccc(N3CCC(C)CC3)cc2)n2nc(-c3ccco3)nc2n1` | no | no | no |
| `O=C(NCCCNc1ccc(C(F)(F)F)cc1[N+](=O)[O-])c1cccc(Br)c1` | no | no | no |
| `COC(=O)C1=C(N)Oc2cc(C)[nH]c(=O)c2C1c1cc(OC)ccc1OC` (configuration not stated) | no | no | no |
| `Nc1c(C(=O)c2ccc3c(c2)OCCO3)sc2nc(-c3ccncc3)cc(C(F)(F)F)c12` | no | no | no |
| `N#CC1=C(N)Oc2[nH]c(=O)[nH]c(=O)c2C1c1ccc(Cl)c(Cl)c1` (configuration not stated) | no | no | no |
| `CCOC(=O)c1c(N)n(-c2ccc(C)cc2C)c2nc3ccccc3nc12` | no | no | no |
| `COC(=O)c1ccc(NC(=O)CNc2cccc(Br)c2)cc1` | no | no | no |
| `CCc1c(C(=O)N2C[C@H](CO)C[C@H](CN(C)C)C2)csc1C` | no | no | no |
| `CCN(CC)CCCNc1ncnc2sc3c(c12)CCCC3` | no | no | no |
| `CC(=O)Nc1ccc(S(=O)(=O)N2CCN(CCO)CC2)cc1` | no | no | no |
| `CCc1ccc([C@@H]2C[C@H](c3ccccc3OC)n3nc(N)nc3N2)cc1` | no | no | no |
| `C1CCC(C(CC2CCCCN2)C2CCCCC2)CC1` (configuration not stated) | no | no | no |
| `COc1ccc(-c2cnc3c(-c4ccc(Cl)cc4)cnn3c2N)cc1OC` | no | no | no |
| `c1ccc(CNc2ncccc2-c2nc(-c3ccccc3)no2)cc1` | - | no | no |
| `COC(=O)c1c(-c2ccc(OC)cc2)csc1N` | no | no | no |
| `CC(C)c1ccc(NC2OC(=O)c3ccccc32)cc1` (configuration not stated) | no | no | no |
| `CC(C)(CO)NCc1ccc(-c2ccc(Cl)cc2)o1` | - | no | no |
| `OCc1cc2ccccc2nc1-c1ccc2c(c1)OCCO2` | no | no | no |
| `CCNc1nc(C)cc(N2CCN(S(=O)(=O)c3cccc(C)c3)CC2)n1` | - | no | no |
| `Cc1sc2ncnc(Nc3cccc(C(=O)O)c3)c2c1C` | no | no | no |
| `CC(C)CN1CC(=O)C(c2nc3ccccc3c(=O)[nH]2)=C1N` | - | no | no |
| `CN(C)C(=O)c1ccc(CN2C[C@@H]3CC[C@H](CC2=O)N3)o1` | no | no | no |
| `O=C(NCCSc1cnn[nH]1)c1cccc2c1NCCC2` | no | no | no |
| `Cc1ccccc1-c1cc(O)c2c(c1)CN(C(=O)[C@H](N)C(C)C)CCO2` | no | no | no |
| `Cc1cc(C)n(CCCN(Cc2ccccc2)CC(C)CO)n1` (configuration not stated) | no | no | no |
| `C=CCNc1ccccc1C(=O)NCCNC(C)=O` | no | no | no |

Some entries from above, unchanged:

{"structure": "COC(=O)c1c(-c2ccc(OC)cc2)csc1N", "SAM-II": "no", "PreQ1": "no", "TPP": "no"}
{"structure": "Cc1sc2ncnc(Nc3cccc(C(=O)O)c3)c2c1C", "SAM-II": "no", "PreQ1": "no", "TPP": "no"}
{"structure": "CCCCNc1cc(CCC)nc2c3c(C)cc(C)nc3nn12", "PreQ1": "no", "TPP": "no"}
{"structure": "CC(C)CN1CC(=O)C(c2nc3ccccc3c(=O)[nH]2)=C1N", "PreQ1": "no", "TPP": "no"}

Source: the ROBIN nucleic acid binder screens (doi:10.1002/anie.202211358).